Reference: PubChem BioAssay AID1224861 (National Center for Advancing Translational Sciences (NCATS), 2016)
Inconclusive means that the source gave no clear call. Such entries were picked first, then a sample of the others. A potency beside an inconclusive call is a rough fit, not a confirmed value. Calls of active or inactive are those of the source. The call rests on the fitted dose curve; in most records, active means well fitted cell-killing curve with a large enough effect; inconclusive means small, poorly fitted or top-dose-only effect, or effect the other way; inactive means flat fitted curve, though single readings scatter.

Test: Compound cytotoxicity measured by an ATP content assay as a counter-screen for lead compounds in human astrocytes
Details: human astrocytes viability, ATP luminescence; series mostly up to 46.1 µM
In short: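 Cytotoxicity expressed as percent inhibition of cell viability from ATP-dependent luminescence, read after 10 min at room temperature with 1:1 kit reagent. Compound exposure times matched the primary screens, e.g. 6, 24 or 72 h, in cultured human astrocytes.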

Row | Compound | Potency
1 | COc1ccc(-c2coc3cc(O)ccc3c2=O)cc1 | inconclusive: 19.5 µM [cytotoxic, partial curve]
2 | O=c1c(-c2ccc(O)cc2)coc2cc(OC3O[C@H](CO)[C@H](O)[C@H](O)[C@H]3O)cc(O)c12 (stereo partly specified) | inactive
3 | Nc1ccc2c(c1)CN1C(=O)c3ccccc3C1=N2 | inconclusive: 4.76 µM [cytotoxic, partial curve]
4 | c1ccc(CCNc2nc(-c3ccccc3)cs2)cc1 | inactive
5 | CC(C(=O)O)c1ccc(C(=O)c2cccs2)cc1 (stereo unspecified) | inactive
6 | CCN1/C(=C/C=C/c2sc3ccccc3[n+]2CC)Sc2ccccc21 | inconclusive: 2.68 µM [rising, single point]
7 | CC1=C(CO)C(=O)O[C@@H]([C@@H](C)[C@H]2CC[C@H]3[C@@H]4C[C@H]5O[C@]56[C@@H](O)C=CC(=O)[C@]6(C)[C@@H]4CC[C@]23C)C1 | inactive
8 | O=C(Nc1ccc([N+](=O)[O-])cc1Cl)c1cc(Cl)ccc1O | active: 1.09 µM
9 | Oc1cc(O)cc(/C=C/c2ccc(O)c(O)c2)c1 | active: 8.69 µM
10 | Nc1c(S(=O)(=O)O)cc(Nc2ccc(Nc3nc(Cl)nc(Nc4ccc(S(=O)(=O)O)cc4)n3)c(S(=O)(=O)O)c2)c2c1C(=O)c1ccccc1C2=O | inconclusive: 8.69 µM [cytotoxic, full curve]
11 | COc1ccnc2c1CCCCC2S(=O)c1nc2ccccc2[nH]1 (stereo unspecified) | inconclusive: 30.8 µM [cytotoxic, partial curve, poor fit]
12 | O=C1c2ccccc2C(=O)c2c(NCCc3ccc(O)cc3)ccc(NCCc3ccc(O)cc3)c21 | inconclusive: 8.69 µM [cytotoxic, partial curve, poor fit]
13 | Clc1ccccc1-c1nc(-c2ccncc2)no1 | inconclusive: 13.8 µM [cytotoxic, partial curve, poor fit]
14 | CN(C)c1cc(NC(=O)CNC(C)(C)C)c(O)c2c1C[C@@H]1C[C@H]3[C@H](N(C)C)C(=O)C(C(N)=O)=C(O)[C@@]3(O)C(=O)C1=C2O | inactive
15 | Cc1cccc(C#Cc2ccccc2)n1 | inconclusive: 10.9 µM [cytotoxic, partial curve]
16 | C[C@@H](O[C@H]1OCCN(Cc2n[nH]c(=O)[nH]2)[C@@H]1c1ccc(F)cc1)c1cc(C(F)(F)F)cc(C(F)(F)F)c1 | inconclusive: 19.5 µM [cytotoxic, single point]
17 | O=S(=O)(O)c1ccc2nc(-c3ccccc3)[nH]c2c1 | inactive
18 | COc1ccc(/C=C/C(=O)Nc2ccccc2C(=O)O)cc1OC | inconclusive: 17.3 µM [cytotoxic, single point]
19 | CCC(C)SSc1ncc[nH]1 (stereo unspecified) | inconclusive: 24.5 µM [cytotoxic, partial curve, poor fit]
20 | CS(=O)(=O)c1ccc(-c2cn3ccccc3n2)cc1 | active: 8.69 µM
21 | CC(=O)Oc1ccccc1C(=O)Nc1ncc([N+](=O)[O-])s1 | inconclusive: 15.8 µM [cytotoxic, partial curve]
